Laboratory results as given in doi:10.1101/2025.02.21.639583.

Protein sequences, listed by entry. Tags and fused reporters are not part of them.
UniProt P19524: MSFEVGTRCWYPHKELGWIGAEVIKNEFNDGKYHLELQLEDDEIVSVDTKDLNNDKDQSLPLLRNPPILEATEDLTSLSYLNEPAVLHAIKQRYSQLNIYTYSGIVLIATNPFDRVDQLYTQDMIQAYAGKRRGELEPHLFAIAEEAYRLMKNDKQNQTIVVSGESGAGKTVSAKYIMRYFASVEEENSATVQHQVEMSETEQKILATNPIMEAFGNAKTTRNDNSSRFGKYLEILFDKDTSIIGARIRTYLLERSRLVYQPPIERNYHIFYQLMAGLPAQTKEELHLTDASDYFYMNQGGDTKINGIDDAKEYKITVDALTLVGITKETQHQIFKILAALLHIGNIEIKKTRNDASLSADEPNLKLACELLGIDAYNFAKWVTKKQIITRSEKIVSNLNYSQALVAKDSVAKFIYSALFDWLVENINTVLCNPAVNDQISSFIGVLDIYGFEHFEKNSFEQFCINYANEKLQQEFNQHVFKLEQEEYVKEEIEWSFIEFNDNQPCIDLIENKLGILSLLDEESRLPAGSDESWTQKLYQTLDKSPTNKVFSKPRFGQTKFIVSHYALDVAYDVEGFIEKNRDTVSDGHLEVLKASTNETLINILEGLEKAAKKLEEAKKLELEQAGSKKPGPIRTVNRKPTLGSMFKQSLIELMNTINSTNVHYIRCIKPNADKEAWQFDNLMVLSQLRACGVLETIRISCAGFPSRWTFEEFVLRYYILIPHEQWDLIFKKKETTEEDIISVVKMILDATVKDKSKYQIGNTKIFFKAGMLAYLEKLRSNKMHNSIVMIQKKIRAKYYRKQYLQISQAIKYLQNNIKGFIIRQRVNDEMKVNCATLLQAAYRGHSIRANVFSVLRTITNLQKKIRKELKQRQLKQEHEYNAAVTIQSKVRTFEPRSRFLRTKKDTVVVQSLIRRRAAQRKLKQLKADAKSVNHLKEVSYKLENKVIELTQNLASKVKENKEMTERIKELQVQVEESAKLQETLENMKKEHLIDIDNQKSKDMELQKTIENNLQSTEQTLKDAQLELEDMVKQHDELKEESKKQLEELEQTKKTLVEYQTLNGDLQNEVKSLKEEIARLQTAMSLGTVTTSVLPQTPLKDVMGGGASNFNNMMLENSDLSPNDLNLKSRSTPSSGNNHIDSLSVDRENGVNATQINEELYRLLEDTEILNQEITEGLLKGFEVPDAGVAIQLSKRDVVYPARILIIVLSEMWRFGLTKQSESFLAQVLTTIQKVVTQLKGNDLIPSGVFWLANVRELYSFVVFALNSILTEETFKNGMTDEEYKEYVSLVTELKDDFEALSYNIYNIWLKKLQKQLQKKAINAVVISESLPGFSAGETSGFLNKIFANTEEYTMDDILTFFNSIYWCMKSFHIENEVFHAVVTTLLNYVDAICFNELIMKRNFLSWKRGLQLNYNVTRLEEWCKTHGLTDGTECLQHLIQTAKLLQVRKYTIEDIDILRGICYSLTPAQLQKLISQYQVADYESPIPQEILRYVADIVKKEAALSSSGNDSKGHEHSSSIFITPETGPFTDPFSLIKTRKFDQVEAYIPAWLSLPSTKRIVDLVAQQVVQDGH

Key:
[1] = molecular target: T1, Ldm1-GFP (Lipid Droplet Motility 1 / Yer085c, C-terminally GFP-tagged, TEF2 promoter) (S. cerevisiae) (UniProt P40058); assay: affinity purification with mass spectrometry
T1 sequence: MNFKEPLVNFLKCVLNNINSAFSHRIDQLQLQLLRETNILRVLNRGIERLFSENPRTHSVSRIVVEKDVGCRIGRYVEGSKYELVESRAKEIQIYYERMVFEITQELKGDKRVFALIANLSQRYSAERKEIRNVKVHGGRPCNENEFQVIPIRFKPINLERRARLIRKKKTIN

[2] = molecular target: T1, Ldm1-GFP (Lipid Droplet Motility 1 / Yer085c, C-terminally GFP-tagged, TEF2 promoter) (S. cerevisiae); assay: affinity purification with mass spectrometry; remark: listed apart in the source

## Pln1 (structural LD protein) (S. cerevisiae (endogenous in yeast))
[1]
  binding: binds

## Myo2 (type V myosin motor protein) (from UniProt P19524 1-1574)
[1]
  binding: binds

B1: Ldo16 (LD surface protein) (protein, UniProt P40219 1-148)
chain: MVSTATFFFFVYLTLFVVIGFFSSLFIIPLLGISFVFAIGVVSFGFCSNMSFKMAQLIYVRADAFLKKVLDKMALQTQPAQLQEPQEPLSTLRPVSNPTIPSPLRQTARPSKFVTEEDVIFEPVSAQSAIARSLETTANKAGNKFQLS
[2]
  binding: binds

Like-named read-outs stand apart in the source and are kept apart here. No constants are given. Whether binding was seen depends on the method and setting. In cells and extracts the contact can be indirect. These calls come from enrichment with a bait or labelling near it, and not all partners need be listed. Tags and fused reporters may be left off the sequences shown.
